Counter-ions that a name gives are not always drawn.
Test system: cynomolgus monkeys
Test: qEEG power spectra after treatment with drug alone (radio-telemetry EEG)
Format: in vivo, cynomolgus monkeys (Macaca fascicularis)
Protocol: Implant surgery was carried out at Hamri Company Limited (Ibaraki, Japan). Briefly, under isoflurane anesthesia (1–5%, Pfizer Japan Inc., Tokyo, Japan), male cynomolgus monkeys (3–5 years old, Hamri Co., Ltd., Ibaraki, Japan) were surgically implanted with radio-telemetry transmitters (TL10M3-D70-EEE, Data Sciences International Inc., St. Paul, MN). EEG leads were stereotaxically positioned in the parietal area and secured to the cranium with stainless-steel screws in contact with the dura. […] Bilateral electromyography (EMG) leads were implanted in the back cervical muscles. After surgery, each monkey was administered penicillin (100,000 units/animal, i.m., Meiji Seika Pharma Co., Ltd., Tokyo, Japan), buprenorphine (0.02 mg/kg, i.m., Otsuka Pharmaceutical Co., Ltd., Tokyo, Japan), and prednisolone (1 mg/kg, subcutaneously [s.c.], Kyoritsu Seiyaku Co., Ltd., Tokyo, Japan) daily for one week.
TAK-071, 4-fluoro-2-[(3S,4S)-4-hydroxytetrahydro-2H-pyran-3-yl]-5-methyl-6-[4-(1H-pyrazol-1-yl)benzyl]-2,3-dihydro-1H-isoindol-1-one, was synthesized by Takeda Pharmaceutical Company Limited (Kanagawa, Japan). Donepezil hydrochloride and xanomeline oxalate were purchased from Mega Fine Pharma (P) Limited (Mumbai, India) and Metina AB (Lund, Sweden), respectively. […] TAK-071 and donepezil hydrochloride were suspended in 0.5% (w/v) methylcellulose in distilled water and the volume of administration was 2 mL/kg orally (p.o.). […] The doses of compounds correspond to their salt forms. The administration was scheduled according to a 3×3 cross-over design.
After at least a 1-month recovery period in their home cages, the monkeys were habituated to the recording chamber (acrylic cage, 60 × 55 × 75 [cm^3 width × depth × height]) located in a soundproof, electrically shielded room. Cortical EEG, EMG, and EOG signals were recorded at a sampling rate of 500 Hz using Dataquest ART software (Data Sciences International, New Brighton, MN). The behavioral and postural changes of the animals were observed using a video camera continuously throughout the experiment. The recordings were performed between 9 a.m. and 4 p.m..
EEG data were analyzed off-line using SleepSign (KISSEI COMTEC Co., Ltd., Nagano, Japan). Digitized EEG signals were high-pass filtered with a 0.75-Hz filter. Spectral power densities for each frequency band were calculated by fast Fourier transform in consecutive 10-s epochs. Epochs containing abnormal EEG, defined by excessive amplitude (> 500 μV), were omitted from data analysis. For analysis of temporal changes in a specific spectral band (1–4 Hz for delta, 4–8 Hz for theta, 8–12 Hz for alpha, 12–30 Hz for beta, 30–80 Hz for gamma), the EEG power of each spectral band was calculated every 15 min. For each animal, the qEEG spectral analyses were performed from 30 to 240 min after treatment because oral and subcutaneous administration of drugs to monkeys can affect the qEEG power spectra. Data obtained in the post-drug period were normalized with those obtained in the baseline period and were calculated as the area under the curve (AUC) between 30 and 210 min after drug administration for quantitative analyses.

[1] = scopolamine alone, 50 and 100 μg/kg s.c., vs vehicle, P ≤ 0.05, 4 monkeys

## CN1[C@@H]2C[C@@H](OC(=O)[C@H](CO)c3ccccc3)C[C@H]1[C@@H]1O[C@@H]12 [scopolamine, Scopolamine hydrobromide]
Scopolamine 25–100 μg/kg s.c.
  beta power band of qEEG spectra: did not change remarkably
  gamma power band of qEEG spectra: did not change remarkably
[1]
  alpha power band of qEEG spectra (AUC 30-210 min): significantly increased
  delta power band of qEEG spectra (AUC 30-210 min): significantly increased
  theta power band of qEEG spectra (AUC 30-210 min): significantly increased

Reference: publication PMC6411103, “TAK-071, a muscarinic M1 receptor positive allosteric modulator, attenuates scopolamine-induced quantitative electroencephalogram power spectral changes in cynomolgus monkeys” (PLoS ONE, 2019)
